The list does not hold the whole screen: it gathers tests that were run many times, whatever their T/C, doses with no T/C, and many T/C values between a quarter and a half above the control. Other doses and runs of a compound stand elsewhere. T/C is the treated group as % of the vehicle group. Some entries give survivors of the animals treated and no T/C: the source holds a T/C of zero for them, seemingly a mark for toxic or unscored doses. Some doses without a T/C left all or most animals alive at the check, yet need not have been tolerated: the source hardly ever lists a survival T/C far under the control, and the zero likely stands for such cases as well. Survivors were counted at the toxicity check, usually on the fifth day, unless a day is given; later deaths do not show. Schedule codes are those of the source, read here as Q, the interval in days (D) or hours (H), X, the number of doses. Some entries hold several experiments; the results are listed from low to high. Counts like (3×) stand for listed records that agree. Where survival is the endpoint, the PubChem record calls one and a half times the control and up active, and a quarter to a half above the control has no call in these data; cut-offs in other NCI protocols can differ. Some T/C values carry the count of animals alive at the toxicity check (mostly the fifth day); where none is given, no animal had died by that day.
Tested on: Lewis lung carcinoma i.m., BDF1 mice, T/C %
Assay: NCI In Vivo Anticancer Drug Screen. Data for tumor model Lewis Lung Carcinoma (intramuscular) in B6D2F1 (BDF1) mice
Details: T/C endpoint: median survival time, higher T/C = longer survival
How it was run: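 Antitumour activity is assessed in transplanted-tumour mice. Endpoint is survival or tumour size, normalised to vehicle-dosed controls (T/C).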

With Cc1c(N)nc([C@H](CC(N)=O)NC[C@H](N)C(N)=O)nc1C(=O)N[C@H](C(=O)N[C@H](C)[C@@H](O)[C@H](C)C(=O)N[C@H](C(=O)NCCc1nc(-c2nc(C(=O)NCCC[S+](C)C)cs2)cs1)[C@@H](C)O)C(OC1OC(CO)C(O)C(O)C1OC1OC(CO)C(O)C(OC(N)=O)C1O)c1cnc[nH]1 (some centres undefined) the T/C (dose: 8.4 mg/kg/injection, schedule: Q01DX009 (ip), vehicle: saline, evaluated on day 48) was 102 [7 of 8 alive] and 111 % of control [7 of 8 alive], the T/C (dose: 8.4 mg/kg/injection, schedule: Q01DX009 (ip), vehicle: saline, evaluated on day 52) was 146 % of control and the T/C (dose: 8.5 mg/kg/injection, schedule: Q01DX011 (ip), vehicle: saline) was 133 % of control. For the same compound, the T/C (dose: 10.0 mg/kg/injection, schedule: Q01DX011 (ip), vehicle: saline) was 144 % of control, the T/C (dose: 12.5 mg/kg/injection, schedule: Q01DX011 (ip), vehicle: saline) was 133 % of control and the T/C (dose: 14.0 mg/kg/injection, schedule: Q01DX004 (ip), vehicle: saline) was 138 % of control. For the same compound, the T/C (dose: 14.0 mg/kg/injection, schedule: Q01DX009 (ip), vehicle: none) was 130 % of control, the T/C (dose: 14.0 mg/kg/injection, schedule: Q01DX009 (ip), vehicle: saline, evaluated on day 10) was 131 % of control and the T/C (dose: 14.0 mg/kg/injection, schedule: Q01DX009 (ip), vehicle: saline, evaluated on day 11) was 186 % of control. For the same compound, the T/C (dose: 14.0 mg/kg/injection, schedule: Q01DX009 (ip), vehicle: saline, evaluated on day 12) was 129 and 134 % of control, the T/C (dose: 14.0 mg/kg/injection, schedule: Q01DX009 (ip), vehicle: saline, evaluated on day 14) was 146 % of control and the T/C (dose: 14.0 mg/kg/injection, schedule: Q01DX009 (ip), vehicle: saline, evaluated on day 41) was 131 % of control [7 of 8 alive]. For the same compound, the T/C (dose: 14.0 mg/kg/injection, schedule: Q01DX009 (ip), vehicle: saline, evaluated on day 43) was 130 % of control [7 of 8 alive], the T/C (dose: 14.0 mg/kg/injection, schedule: Q01DX009 (ip), vehicle: saline, evaluated on day 45) was 132 % of control and the T/C (dose: 14.0 mg/kg/injection, schedule: Q01DX009 (ip), vehicle: saline, evaluated on day 48) was 130 [7 of 8 alive] and 158 % of control. The T/C (dose: 14.0 mg/kg/injection, schedule: Q01DX009 (ip), vehicle: saline, evaluated on day 52) was 146 % of control [7 of 8 alive], the T/C (dose: 14.0 mg/kg/injection, schedule: Q09DX009 (ip), vehicle: saline, evaluated on day 10) was 141 % of control and the T/C (dose: 14.0 mg/kg/injection, schedule: Q09DX009 (ip), vehicle: saline, evaluated on day 50) was 141 % of control [7 of 8 alive]. The T/C (dose: 16.0 mg/kg/injection, schedule: Q01DX009 (ip), vehicle: water, evaluated on day 45) was 138 and 187 % of control, the T/C (dose: 16.0 mg/kg/injection, schedule: Q01DX009 (ip), vehicle: water, evaluated on day 60) was 138 % of control and the survivor count (dose: 16.0 mg/kg/injection, schedule: Q01DX009 (ip), vehicle: water) was 9 of 10. For the same compound, the T/C (dose: 16.0 mg/kg/injection, schedule: Q01DX011 (ip), vehicle: saline) was 126 % of control, the survivor count (dose: 20.0 mg/kg/injection, schedule: Q01DX011 (ip), vehicle: saline) was 8 of 8 and the survivor count (dose: 20.0 mg/kg/injection, schedule: Q01DX014 (ip), vehicle: saline) was 8 of 8. For the same compound, the T/C (dose: 23.0 mg/kg/injection, schedule: Q01DX004 (ip), vehicle: saline) was 139 % of control, the T/C (dose: 23.0 mg/kg/injection, schedule: Q01DX009 (ip), vehicle: saline, evaluated on day 10) was 165 % of control and the T/C (dose: 23.0 mg/kg/injection, schedule: Q01DX009 (ip), vehicle: saline, evaluated on day 11) was 168 % of control. For the same compound, the T/C (dose: 23.0 mg/kg/injection, schedule: Q01DX009 (ip), vehicle: saline, evaluated on day 12) was 151 and 185 % of control, the T/C (dose: 23.0 mg/kg/injection, schedule: Q01DX009 (ip), vehicle: saline, evaluated on day 14) was 120 % of control and the T/C (dose: 23.0 mg/kg/injection, schedule: Q01DX009 (ip), vehicle: saline, evaluated on day 41) was 152 % of control [7 of 8 alive]. The T/C (dose: 23.0 mg/kg/injection, schedule: Q01DX009 (ip), vehicle: saline, evaluated on day 43) was 182 % of control [7 of 8 alive], the survivor count (dose: 23.0 mg/kg/injection, schedule: Q01DX009 (ip), vehicle: saline) was 5 of 8 (2×), 6 of 8, 7 of 8 and the T/C (dose: 23.0 mg/kg/injection, schedule: Q04DX003 (ip), vehicle: saline) was 127 % of control. The survivor count (dose: 25.0 mg/kg/injection, schedule: Q01DX011 (ip), vehicle: saline) was 0 of 8, the T/C (dose: 25.0 mg/kg/injection, schedule: Q04DX003 (ip), vehicle: saline) was 136 % of control and the survivor count (dose: 30.0 mg/kg/injection, schedule: Q01DX011 (ip), vehicle: saline) was 4 of 8. The survivor count (dose: 30.0 mg/kg/injection, schedule: Q01DX011 (sc), vehicle: saline) was 2 of 8, the survivor count (dose: 32.0 mg/kg/injection, schedule: Q01DX009 (ip), vehicle: water) was 6 of 10 and 10 of 10 (3×) and the survivor count (dose: 32.0 mg/kg/injection, schedule: Q01DX011 (ip), vehicle: saline) was 2 of 10 and 6 of 10. The T/C (dose: 36.0 mg/kg/injection, schedule: Q04DX003 (ip), vehicle: saline) was 147 % of control, the survivor count (dose: 40.0 mg/kg/injection, schedule: Q01DX011 (ip), vehicle: saline) was 0 of 8 and the survivor count (dose: 40.0 mg/kg/injection, schedule: Q01DX014 (ip), vehicle: saline) was 8 of 8. For the same compound, the T/C (dose: 40.0 mg/kg/injection, schedule: Q04DX003 (ip), vehicle: saline) was 125 % of control, the T/C (dose: 51.0 mg/kg/injection, schedule: Q04DX003 (ip), vehicle: saline) was 133 % of control [6 of 8 alive] and the survivor count (dose: 60.0 mg/kg/injection, schedule: Q01DX011 (ip), vehicle: saline) was 0 of 8. The survivor count (dose: 64.0 mg/kg/injection, schedule: Q01DX009 (ip), vehicle: water) was 10 of 10, the survivor count (dose: 73.0 mg/kg/injection, schedule: Q01DX001 (ip), vehicle: saline) was 4 of 8 and the survivor count (dose: 80.0 mg/kg/injection, schedule: Q04DX003 (ip), vehicle: saline) was 4 of 8. The survivor count (dose: 665.0 mg/kg/injection, schedule: Q04DX003 (ip), vehicle: saline) was 5 of 8.

From PubChem BioAssay AID272 (DTP/NCI, 2004)
